From article doi:10.1101/2025.10.15.682441
No constants are given. Whether binding was seen depends on the method and setting. In cells and extracts the contact can be indirect. A yes stands for co-enrichment or nearness to the bait. Other partners may have been found.

Protein sequences, listed by entry. Tags and fused reporters are not part of them. Lines headed by an entry give the natural chain unless they say otherwise; changes in a name come on top.
UniProt Q9UHD9, whole entry: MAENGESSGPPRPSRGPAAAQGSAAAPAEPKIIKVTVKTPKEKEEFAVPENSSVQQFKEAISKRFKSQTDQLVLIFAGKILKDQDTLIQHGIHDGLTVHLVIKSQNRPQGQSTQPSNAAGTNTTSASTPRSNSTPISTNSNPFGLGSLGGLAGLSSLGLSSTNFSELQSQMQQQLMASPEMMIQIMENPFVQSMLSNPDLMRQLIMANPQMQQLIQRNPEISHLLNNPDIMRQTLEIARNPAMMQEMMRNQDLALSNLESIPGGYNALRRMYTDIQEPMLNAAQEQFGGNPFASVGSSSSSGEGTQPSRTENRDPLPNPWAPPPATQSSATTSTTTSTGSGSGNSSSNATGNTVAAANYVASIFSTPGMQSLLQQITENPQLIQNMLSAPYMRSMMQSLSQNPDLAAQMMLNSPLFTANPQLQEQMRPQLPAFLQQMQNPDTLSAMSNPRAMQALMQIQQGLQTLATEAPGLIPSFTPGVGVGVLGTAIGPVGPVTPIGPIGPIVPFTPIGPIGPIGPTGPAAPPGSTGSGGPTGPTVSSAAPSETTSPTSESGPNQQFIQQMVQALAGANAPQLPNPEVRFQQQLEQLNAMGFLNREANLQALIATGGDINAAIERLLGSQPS

Molecular target: Ubiquilin-2, wild type (UBQLN2^WT) (human (endogenous in iPSCs and iMNs)) (UniProt Q9UHD9)
Experiment: affinity purification with mass spectrometry

binding | Substance
binds | VKORC1 (from UniProt Q9BQB6 1-163)
binds | VKORC1L1 (from UniProt Q8N0U8 1-176)
